Laboratory results: article PMC10090121
Results are given in words; binding and its absence hold for the method and conditions named. In cells and extracts the contact can be indirect. Some binding calls cover weakened binding; strength is not graded here. For some assays here: Tags and fused reporters may be left off the sequences shown.

Protein sequences, listed by entry. Tags and fused reporters are not part of them.
UniProt Q9GZV5: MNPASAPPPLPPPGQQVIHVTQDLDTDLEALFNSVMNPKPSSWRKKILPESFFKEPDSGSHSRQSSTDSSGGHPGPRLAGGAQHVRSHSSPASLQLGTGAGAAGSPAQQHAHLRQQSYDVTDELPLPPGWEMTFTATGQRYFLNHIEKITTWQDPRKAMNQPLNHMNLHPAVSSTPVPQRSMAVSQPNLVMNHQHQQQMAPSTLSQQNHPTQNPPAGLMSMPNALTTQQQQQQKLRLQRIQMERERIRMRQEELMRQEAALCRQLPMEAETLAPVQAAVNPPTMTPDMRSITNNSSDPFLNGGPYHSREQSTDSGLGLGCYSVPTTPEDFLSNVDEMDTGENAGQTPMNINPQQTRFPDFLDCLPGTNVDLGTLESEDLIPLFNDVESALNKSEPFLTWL

Legend:
Flag-USP1 = biological target: T1, Flag-USP1 (UniProt O94782); assay: co-IP; Flag-USP1 with WT or truncated TAZ in transfected cells; Co-IP with USP1 (anti-Flag antibody), immunoblot
T1 sequence: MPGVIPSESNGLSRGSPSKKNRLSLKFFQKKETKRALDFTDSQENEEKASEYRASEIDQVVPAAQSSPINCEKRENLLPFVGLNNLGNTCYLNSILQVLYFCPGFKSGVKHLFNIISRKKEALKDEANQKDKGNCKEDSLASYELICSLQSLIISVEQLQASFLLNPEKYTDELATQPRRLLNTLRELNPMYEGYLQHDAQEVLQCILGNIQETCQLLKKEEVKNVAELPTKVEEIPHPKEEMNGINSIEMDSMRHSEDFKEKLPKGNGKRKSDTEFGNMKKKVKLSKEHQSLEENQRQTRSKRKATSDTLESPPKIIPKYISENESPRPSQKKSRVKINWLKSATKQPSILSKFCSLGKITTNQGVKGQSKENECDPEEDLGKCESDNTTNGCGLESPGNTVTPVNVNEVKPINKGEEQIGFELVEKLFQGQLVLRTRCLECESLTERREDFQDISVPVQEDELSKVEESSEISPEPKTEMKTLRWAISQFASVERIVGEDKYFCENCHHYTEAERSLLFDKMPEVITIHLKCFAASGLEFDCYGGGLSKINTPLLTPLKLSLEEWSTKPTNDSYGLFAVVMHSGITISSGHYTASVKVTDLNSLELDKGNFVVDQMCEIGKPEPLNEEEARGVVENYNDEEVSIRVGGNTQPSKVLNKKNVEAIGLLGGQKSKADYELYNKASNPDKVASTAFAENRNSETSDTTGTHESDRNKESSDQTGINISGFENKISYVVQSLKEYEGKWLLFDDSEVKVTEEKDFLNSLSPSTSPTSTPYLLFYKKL

[1] = biological target: T2, USP1 (ubiquitin carboxyl-terminal hydrolase 1) (human (endogenous in HLF)) (UniProt O94782); assay: co-IP; endogenous proteins in HLF cell lysate; 500 µg lysate precleared with Protein A + G agarose and rabbit IgG, immunoprecipitation with the indicated antibody 4 h at 4 °C; IgG as negative control
T2 sequence: T1 sequence

| binding (Flag-USP1) | binding [1] | Substance |
| --- | --- | --- |
| binds |  | Myc-TAZ (from UniProt Q9GZV5 1-400) |
|  | binds | WW domain-containing transcription regulator protein 1 (WWTR1; TAZ) (from UniProt Q9GZV5 1-400) |
